Patent US20080025940A1, “Administration of 3-sulfanylpropanamide compounds for stimulating hair and eyelash growth and/or for stopping the loss and/or limiting the depigmentation thereof” (L'OREAL, priority 2005, published 2008)
Some of these results come from one statement about several compounds together.

Tests used:
15-PGDH = molecular target: T1, 15-PGDH (Homo sapiens, UniProt P15428); assay: Test on 15-PGDH (spectrophotometric, NAD/PGE2, 340 nm); format: biochemical
T1 construct: made in house
T1 sequence (P15428 1-266): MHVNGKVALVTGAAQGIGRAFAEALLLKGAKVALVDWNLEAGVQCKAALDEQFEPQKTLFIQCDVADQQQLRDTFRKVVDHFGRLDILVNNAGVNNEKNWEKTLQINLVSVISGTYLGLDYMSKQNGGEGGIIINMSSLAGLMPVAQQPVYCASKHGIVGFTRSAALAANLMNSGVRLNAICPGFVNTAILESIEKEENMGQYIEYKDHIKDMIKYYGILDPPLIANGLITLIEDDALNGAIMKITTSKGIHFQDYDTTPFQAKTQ
Method: The enzyme 15-PGDH is obtained as described in FR 02/05067 filed in the name of L'Oreal, as a suspension in a medium adjusted to a concentration of 0.3 mg/mL and then blocked at −80° C. For the purposes of the test, this suspension is thawed and stored in ice.
In parallel, a 100 mM, pH 7.4 Tris buffer containing 0.1 mM of dithiothreitol (D5545, Sigma-Aldrich, L'isle D'Abeau Chesne, BP 701, 38297, Saint Quentin Fallavier), 1.5 mM of β-NAD (N6522, Sigma-Aldrich, L'isle D'Abeau Chesne, BP 701, 38297, Saint Quentin Fallavier), and 50 μM of prostaglandin E2 (P4172, Sigma-Aldrich, L'isle D'Abeau Chesne, BP 701, 38297, Saint Quentin Fallavier) is prepared.
0.965 ml of this buffer (brought to 37° C. beforehand) is introduced into the cuvette of a spectrophotometer (Perkin-Elmer, Lambda 2) thermostatically maintained at 37° C., the measuring wavelength of which is set at 340 nm. 0.035 mL of enzymatic suspension at 37° C. is introduced into the cuvette concomitantly with the recording (corresponding to an increase in the optical density at 340 nm). The maximum reaction rate is recorded.

PGF synthase (PGFS) = molecular target: T2, PGF synthase (PGFS) (Homo sapiens, UniProt P42330); assay: Test on PGF synthase (spectrophotometric, NADPH/9,10-phenanthrenequinone, 340 nm); format: biochemical; conditions: pH 6.5 Tris buffer, 37° C.; IC50fs values not given
T2 construct: made in house
T2 sequence (P42330 1-323): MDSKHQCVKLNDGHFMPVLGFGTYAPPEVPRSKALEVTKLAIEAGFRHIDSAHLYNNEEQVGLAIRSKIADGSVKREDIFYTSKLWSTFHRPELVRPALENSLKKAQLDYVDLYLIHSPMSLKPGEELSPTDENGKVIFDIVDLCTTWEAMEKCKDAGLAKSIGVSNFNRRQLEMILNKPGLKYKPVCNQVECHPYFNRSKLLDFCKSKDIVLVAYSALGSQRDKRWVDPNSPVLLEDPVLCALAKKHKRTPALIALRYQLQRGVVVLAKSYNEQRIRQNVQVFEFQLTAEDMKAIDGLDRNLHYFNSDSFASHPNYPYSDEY

Compound	15-PGDH inhibitor (result in words) (15-PGDH)	selectivity 15-PGDH versus PGFS (IC50dh compared with IC50fs) (PGF synthase (PGFS))
CSCCC(=O)NCc1ccc(C)o1 [Example 1, N-[(5-methyl-2-furyl)methyl]-3-(methylsulfanyl)propanamide]	indeed 15-PGDH inhibitors	the IC50dh is lower than the IC50fs
CSCCC(=O)NC(C)c1ccccc1 (stereo not shown) [Example 7, 3-(methylsulfanyl)-N-(1-phenylethyl)propanamide]	indeed 15-PGDH inhibitors	the IC50dh is lower than the IC50fs
CSCCC(=O)Nc1ccccc1C(F)(F)F [Example 5, 3-(methylsulfanyl)-N-[2-(trifluoromethyl)phenyl]propanamide]	indeed 15-PGDH inhibitors	the IC50dh is lower than the IC50fs
CSCCC(=O)NCc1ccco1 [Example 2, N-(2-furylmethyl)-3-(methylsulfanyl)propanamide]	indeed 15-PGDH inhibitors	the IC50dh is lower than the IC50fs
N-benzyl-3-(methylsulfanyl)propanamide [Example 6]	indeed 15-PGDH inhibitors	the IC50dh is lower than the IC50fs
COc1ccc(CNC(=O)CCSC)cc1 [Example 3, N-(4-methoxybenzyl)-3-(methylsulfanyl)propanamide]	indeed 15-PGDH inhibitors	the IC50dh is lower than the IC50fs
CSCCC(=O)NC1CCC1 [Example 8, N-cyclobutyl-3-(methylsulfanyl)propanamide]	indeed 15-PGDH inhibitors	the IC50dh is lower than the IC50fs
CCCCCCNC(=O)CCSC [Example 4, N-hexyl-3-(methylsulfanyl)propanamide]	indeed 15-PGDH inhibitors	the IC50dh is lower than the IC50fs
